The record followed here is publication PMC9788671.

By UniProt entry, the sequences of proteins in these tests, tags left out.
UniProt Q9NZV8: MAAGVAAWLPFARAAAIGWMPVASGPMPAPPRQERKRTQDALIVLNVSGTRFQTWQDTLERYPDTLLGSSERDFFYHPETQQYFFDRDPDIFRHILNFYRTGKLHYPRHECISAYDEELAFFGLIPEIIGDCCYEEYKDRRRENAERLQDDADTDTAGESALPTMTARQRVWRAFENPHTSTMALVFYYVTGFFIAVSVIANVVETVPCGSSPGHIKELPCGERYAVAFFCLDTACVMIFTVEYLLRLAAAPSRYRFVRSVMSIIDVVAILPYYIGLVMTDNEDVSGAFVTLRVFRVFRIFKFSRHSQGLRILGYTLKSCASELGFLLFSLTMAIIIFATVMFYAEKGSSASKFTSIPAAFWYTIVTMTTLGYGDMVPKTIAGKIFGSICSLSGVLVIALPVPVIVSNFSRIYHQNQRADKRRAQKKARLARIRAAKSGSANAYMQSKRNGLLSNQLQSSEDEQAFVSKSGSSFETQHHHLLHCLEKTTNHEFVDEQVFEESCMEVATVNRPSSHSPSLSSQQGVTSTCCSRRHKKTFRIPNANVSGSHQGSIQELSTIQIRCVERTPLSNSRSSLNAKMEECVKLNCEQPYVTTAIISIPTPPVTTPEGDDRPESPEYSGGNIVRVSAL

B1: Golga3 (protein, UniProt D3ZLD5 1-1487)
chain: MDGASAKQDGLWENKSSSDISSCPEASLETVGSLAQLPDQQDTAQDGSVEVNRVFKEEGSPDRSSQVPICQNGQIPDLQLSLDPTTSPVGPDASTGVDGFHDNLRKSQGTSAEGSVRKEALQSLRLSLPMQETQLCSTASSLPLEKEEQVRLQARKRLEEQLMQYRVKRHRERSSQPATKMKLFSTLDPELMLNPENLPRASAVAVTKEYSFLRTSVPRGPKVGSLGLLAHSKEKKNSKSSKIRSLADYRTEDPSDSGGLGSTADAVGSSLKQSRSSTSVVSEVSPSCETDNRAESASLAGDSVSEADGNESDSSSHSSFSARGACAVLGNVGTPGAAYVVDGQEISAEALGQFPSIKDVLQAAAAQHQDQNQEANGEVQSRRDSICSSVSMESSFAEPQEELLQILKDKRRLEGQVEALSLEASQALQEKAELQAQLAALSTRLQAQVEHSHSSQQKQDSLSSEVDTLKQSCWDLERAMTDLQNMLEAKNASLASSNNDLQVAEEQYQRLMAKVEAMQRNILSKDNTVHDLRQQMTALQSQLQQVQLERTTLTSKLQASQAEITSLQQARQWYQQQLALAQEARVRLQGEMAHIQVGQMTQAGLLEHLKLENVSLSHQLTETQHRSIKEKERIAVQLQSIEADMLDQEAAFVQIREAKTMVEEDLQRKLEEFEGEREQLQKVADAAASLEQQLEQVKLTLFQRDQQLAALQQEHLDVIKQLTSTQEALQAKGQSLDDLQTRYDELQARLEELQREADSREDAIHFLQNEKIVLEVALHSARSDKEELDRGARRLEEDTEETSGLLEQLRQDVAVKSNQVEHLQQETATLRKQMQKVKEQFLQQKVMVEAYRRDAASKDQLINELKATKKRLDSEMKELRQELIKLHGEKKTVEVEHSRLQKDMSLVHQQMAELEGHLQSVQKERDEMEIHLQSLKFDKEQMIALTEANETLKKQIEELQQEAKKAITEQKQKMKRLGSDLTSAQKEMKTKHKAYENAVSILSRRLQEALANKEATDAELNQLRAQSTGGSSDPALHEKIHALEVELQNVGQSKILLEKELQEVITMTSQELEESREKVLELEDELQESRGFRRKIKRLEESNKKLALELEHERGKLTGLGQSNAALREHNSILETALAKREADLVQLNLQVQAVLQRKEEEDRQMKQLVQALQISLEKEKTEVSSLKEQMAAARVEAGHNRRHFKAATLELSEVKKELQAKEHLVQTLQAEVDELQIQEGKHSQEIAQFQTELAEARTQLQLLQKKLEEQRSQQPTGSQEMEDLKWELDQKEREIQSLKQQLDLTEHQGKKELEGTQQTLQTIKSELETVQEDLSETQKDKFMLQAKVSELKNNMKTLLQQNQQLKLDLRRGAAKKKEPKGESSSSSPATPIKIPDCPVPASLLEELLRPPPAVSKEPLKNLNSCLQQLKQEMDSLQRQMEEHTITVHESLSSWAQVEAAPAEHAHARGDTKVHNQNSVPGEGLGQ
B2: Gapvd1 (protein, UniProt A0A8I5ZT12 1-1484)
chain: MVKLDIHTLAHHLKQERLYVSSEKQLIQRLNADVLKTAEKLYRTAWIAKQQRINLDRLIITSAEASPAECCQHAKILEDTQFVDGYKQLGFQETAYGEFLSRLRENPRLIASSLVAGEKLNQENTQSVIYTVFTSLYGNCIMQEDESYLLQVLRYLIEFELKESDNPRRLLRRGTCAFSILFKLFSEGLFSAKLFLTATLHEPIMQLLVEDEDHLETDPNKLIERFSPAQQEKLFGEKGSDRFRQKVQEMVDSNEAKLVALVNKFIGYLKQNTYCFPHSLRWIVSQMYKTLSCVDRLEVGEVRAMCTDLLLACFICPAVVNPEQYGIISDAPINEVARFNLMQVGRLLQQLAMTGTEEGDPRTKNSLGKFDKGCVAAFLDVVIGGRAVETPPMSSVNLLEGLSRTVVYISYSQLITLVNFMKSVMSGDQLKEDRMALDNLLANLPQAKPGKSSSLDMTPYSTPQMSPATTPANKKNRLPIGQQLAAITAWDSSATNLTAHIPLVTPFATRSRSRSNMLMDLHMDHEGSSQETIQEVQPEEVLVISLGTGPQLTPGMMSENEVLNMQLSDGGQGDVPVDENKLHGKPDKTLRFSLCSDNLEGISEGPSNRSNSVSSLDLEGESVSELGAGPSGSNGVEALQLLEHEQATTQDNLDDKLRKFEIRDMMGLTDDRDISETVSETWSTDVLGSDFDPNVDEDRLQEIAGAAAENVLGSLLCLPGSGSVLLDPCTGSTISETTSEAWSVEVLPSDSEAPDLKQEERLQELESCSGLGSTSDDTDVREVSSRPSTPGLSVVSGISATSEDIPNKIEDLRSECSSDFGGKDSVTSPDVDDIAHGAHQLTSPPSQSESLLAMFDPLSSHEGASAVVRPKVHYARPSHPPPDPPILEGAVGGNEARLPNFGSHVLTAAEMEAFRQRHSYPERLVRSRSSDIVSCVRRPMSDPSWNRRPGNEELPPAAATGATSLVAAPHSSSSSPSKDSSRGETEERKDSDDERSDRSRPWWRKRFVSAMPKAPIPFRKKEKQEKDKDDLGPDRFSTLTDEPSPRLSAQAQVAEDILDKYRNAIKRTSPSEGALANDESTEVMGDGESAHDSPREELQNMSADDLPDSASQAAHPQDSALSYRDVKKKLRLALCSADSVAFPMLTHSTRNGLPEHTDPEDNEIVCFLKVQIAEAINLQDKSLMAQLQETMRCVCRFDNRTCRKLLASIAEDYRKRAPYIAYLTRCRQGLQTTQAHLERLLQRVLRDKEVANRYFTTVCVRLLLESKEKKIREFIQDFQKLTAADDKTAQVEDFLQFLYGAMAQDVIWQNASEEQLQDAQLAIERSVMNRIFKLAFYPNQDGDILRDQVLHEHIQRLSKVVTANHRALQIPEVYLREAPWPSAQSEIRTISAYKTPRDKVQCILRMCSTIMNLLSLANEDSVPGADDFVPVLVFVLIKANPPCLLSTVQYISSFYASCLSGEESYWWMQFTAAVEFIKTIDDRK
B3: Syngap1 (protein, UniProt Q9QUH6 1-1308)
chain: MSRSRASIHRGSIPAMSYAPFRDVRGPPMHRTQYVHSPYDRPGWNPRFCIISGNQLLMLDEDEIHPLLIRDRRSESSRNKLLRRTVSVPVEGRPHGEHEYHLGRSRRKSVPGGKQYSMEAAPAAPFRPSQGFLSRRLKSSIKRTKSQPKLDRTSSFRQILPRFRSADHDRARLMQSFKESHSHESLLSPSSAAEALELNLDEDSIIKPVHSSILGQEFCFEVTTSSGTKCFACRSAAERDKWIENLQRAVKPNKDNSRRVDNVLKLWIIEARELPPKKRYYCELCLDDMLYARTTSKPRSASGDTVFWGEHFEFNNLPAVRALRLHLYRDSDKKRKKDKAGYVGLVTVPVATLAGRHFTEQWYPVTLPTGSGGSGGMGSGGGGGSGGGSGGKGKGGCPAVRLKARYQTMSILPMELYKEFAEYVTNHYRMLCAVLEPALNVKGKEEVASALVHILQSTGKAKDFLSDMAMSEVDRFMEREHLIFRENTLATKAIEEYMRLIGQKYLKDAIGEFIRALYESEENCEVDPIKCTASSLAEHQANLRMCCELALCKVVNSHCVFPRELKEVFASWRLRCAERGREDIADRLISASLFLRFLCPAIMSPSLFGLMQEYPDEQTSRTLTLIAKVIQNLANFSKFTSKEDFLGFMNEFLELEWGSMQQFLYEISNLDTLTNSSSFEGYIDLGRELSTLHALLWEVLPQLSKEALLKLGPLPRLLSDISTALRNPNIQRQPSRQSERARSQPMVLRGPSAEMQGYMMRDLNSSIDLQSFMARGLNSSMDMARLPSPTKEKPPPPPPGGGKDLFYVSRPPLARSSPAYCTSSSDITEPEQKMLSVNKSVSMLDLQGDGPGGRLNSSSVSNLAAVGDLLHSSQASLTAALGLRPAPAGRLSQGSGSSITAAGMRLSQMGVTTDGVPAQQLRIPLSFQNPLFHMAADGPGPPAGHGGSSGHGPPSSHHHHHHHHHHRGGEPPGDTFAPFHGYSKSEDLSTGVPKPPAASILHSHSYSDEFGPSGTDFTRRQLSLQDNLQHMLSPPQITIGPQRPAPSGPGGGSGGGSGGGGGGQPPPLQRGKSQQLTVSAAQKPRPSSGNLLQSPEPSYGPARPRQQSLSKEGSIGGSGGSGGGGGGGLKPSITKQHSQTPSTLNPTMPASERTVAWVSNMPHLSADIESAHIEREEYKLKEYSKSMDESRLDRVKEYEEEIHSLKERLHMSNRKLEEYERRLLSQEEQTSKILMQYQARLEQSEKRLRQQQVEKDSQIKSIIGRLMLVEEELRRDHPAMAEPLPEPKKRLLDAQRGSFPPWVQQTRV
B4: Dhx30 (protein, UniProt Q5BJS0 1-1194)
chain: MFTLDSFRKDRTQHRQRQCKLPPPRLPPMCVNPAPGGTISRASRDLLKEFPQPKNLLNSVIGRALGISHAKDKLVYVHTNGPKKKKVTLHIKWPKSVEVEGYGSKKIDAERQAAAAACQLFKGWGLLGPRNELFDAAKYRVLADRFGSPADSWWRPEPTMPPTSWRQLNPENIRPAGTGGLSRSLGREEEEDEEEELEEGTIDVTEFLSMTQQDSHNPLRDSRGGSFEMTDDDSAIRALTQFPLPKNLLAKVIQIATSSSTAKNLMQFHTVGTKTKLATLTLLWPCPMTFVAKGRRKAEAENKAAALACKKLKSLGLVDRNNEPLTHAMYNLASLRELGETQRRPCTIQVPEPILRKIEAFLSHYPVDSSWISPELRLQSDDILPLGKDSGPLSDPITGKPYMPLSEAEEVRLSQSLLELWRRRGPIWQEAPQLPVDPHRDTILSAIEQHPVVVISGDTGCGKTTRIPQLLLERYVTEGRGARCNVIITQPRRISAVSVAQRVSHELGPSLRRNVGFQVRLESKPPARGGALLFCTVGILLRKLQSNPSLEGVSHVIVDEVHERDVNTDFLLILLKGLQRLNPALRLVLMSATGDNERFSRYFGGCPVIKVPGFMYPVKEHYLEDILAKLGKHQYPHRHRHHESEDECALDLDLVTDLVLHIDARGEPGGILCFLPGWQEIKGVQQRLQEALGMHESKYLILPVHSNIPMMDQKAIFQQPPLGVRKIVLATNIAETSITVNDIVHVVDSGLHKEERYDLKTKVSCLETVWVSRANVIQRRGRAGRCQSGFAYHLFPRSRLEKMVPFQVPEILRTPLENLVLQAKIHMPEKTAVEFLSKAVDSPNIKAVDEAVILLQEIGVLDQREYLTTLGQRLAHISTDPRLAKAIVLAAIFRCLHPLLVVVSCLTRDPFSSSLQNRAEVDKVKALLSHDSGSDHLAFVRAVAGWEEVLRWQDRTSRENYLEENLLYAPSLRFIHGLIKQFSENIYEAFLVGKPSDCTLPSAQCNEYSEEEELVKGVLMAGLYPNLIQVRQGKVTRQGKFKPNSVTYRTKSGNILLHKSTINREATRLRSRWLTYFMAVKSNGSVFVRDSSQVHPLAVLLLTDGDVHIRDDGRRATISLSDSDLLRLEGDSRTVRLLRELRRALGRMVERSLRSELAALPLSVQQEHGQLLALLAELLRGPCGSFDVRKTADD

Results are given in words; binding and its absence hold for the method and conditions named. Binding seen in cells or lysates may run through a third protein. Here binding means that the protein was enriched with, or labelled near, the bait; the list need not be complete.

For the test, the target named is TAP-Kv4.2 (human) (UniProt Q9NZV8). In words: affinity purification with mass spectrometry; TAP-Kv4.2 expressed by lentivirus in rat hippocampal neurons, harvested at DIV14; strong lysis buffer (1% Triton X-100, 0.5% deoxycholate in PBS, pH 7.4); streptavidin resin, then calmodulin resin; gel cut into high and low molecular weight fragments; no MS of the control sample.
B1: the binding result is on record as “binds”.

In the case of B2, the binding entry is recorded as “binds”.

As to B3, the binding result was “binds”.

B4: the binding result is “binds”.
